Publication PMC6854512
These are yes or no findings as the source states them, for the method shown. Binding seen in cells or lysates may run through a third protein. Some entries that bind do so weakly or less than the wild type.

By UniProt entry, the sequences of proteins in these tests, tags left out. Chains listed by the source or under a name are the forms on record and can include a tag or linker. Residues count along the entry.
LASV GP1, receptor binding subunit, cleaved from the tagged LASV GP (P08669, residues 59-259): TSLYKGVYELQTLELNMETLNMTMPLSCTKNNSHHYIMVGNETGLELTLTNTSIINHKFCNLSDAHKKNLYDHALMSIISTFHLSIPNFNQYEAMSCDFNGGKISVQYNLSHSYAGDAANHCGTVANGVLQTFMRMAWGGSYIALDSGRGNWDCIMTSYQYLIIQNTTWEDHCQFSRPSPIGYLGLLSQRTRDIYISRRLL
UniProt P08669, residues 260-491: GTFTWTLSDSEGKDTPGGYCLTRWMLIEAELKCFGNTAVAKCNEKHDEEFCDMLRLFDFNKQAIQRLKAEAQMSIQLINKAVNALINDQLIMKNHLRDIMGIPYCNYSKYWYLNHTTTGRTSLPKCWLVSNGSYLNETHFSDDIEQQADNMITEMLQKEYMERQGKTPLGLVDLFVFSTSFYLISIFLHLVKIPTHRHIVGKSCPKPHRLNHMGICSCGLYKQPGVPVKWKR

Target: LASV GP2, membrane fusion subunit, cleaved from the tagged LASV GP, with the C-terminal Twin-Strep-tag (Lassa virus (Josiah strain)) (UniProt P08669)
Experiment: co-IP; […] (48 h; […], pH 8.0) […]

LASV GP1, receptor binding subunit, cleaved from the tagged LASV GP (from UniProt P08669) (domain or fragment)
binding: binds
